The text below walks through data of US20150299314A1.

The chains behind the UniProt entries cited, without tags or fusion partners. Residues count along the entry.
UniProt Q14444, residues 2-709: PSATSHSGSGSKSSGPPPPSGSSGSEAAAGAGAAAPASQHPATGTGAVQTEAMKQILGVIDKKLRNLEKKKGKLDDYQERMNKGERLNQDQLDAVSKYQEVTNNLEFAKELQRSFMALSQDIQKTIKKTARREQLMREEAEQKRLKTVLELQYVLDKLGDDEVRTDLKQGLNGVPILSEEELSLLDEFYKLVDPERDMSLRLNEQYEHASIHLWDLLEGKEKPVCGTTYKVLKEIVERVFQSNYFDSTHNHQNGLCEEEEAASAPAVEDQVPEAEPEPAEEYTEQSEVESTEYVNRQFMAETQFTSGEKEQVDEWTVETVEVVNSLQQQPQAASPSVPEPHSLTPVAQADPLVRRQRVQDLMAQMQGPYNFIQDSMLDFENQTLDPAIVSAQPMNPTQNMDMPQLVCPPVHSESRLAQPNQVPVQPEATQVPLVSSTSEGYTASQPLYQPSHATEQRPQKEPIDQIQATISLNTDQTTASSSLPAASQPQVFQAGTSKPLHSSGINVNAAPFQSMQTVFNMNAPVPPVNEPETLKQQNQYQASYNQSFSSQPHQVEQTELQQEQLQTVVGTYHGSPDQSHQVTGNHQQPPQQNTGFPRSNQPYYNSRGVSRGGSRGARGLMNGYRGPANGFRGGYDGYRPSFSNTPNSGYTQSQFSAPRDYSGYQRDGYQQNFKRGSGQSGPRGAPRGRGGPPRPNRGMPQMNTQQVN

Results are given in words; binding and its absence hold for the method and conditions named. Some results given as binding are weak or reduced against the parent protein; the word gives no strength.

The chains are these.
B1: anti-CAPRIN-1 monoclonal antibody #28 (antibody, V domains shown)
VH: GPDLVKPGASVKISCKASGYSFTAYYMHWVKQSHGKSLEWIGRVNPNNGGTTYNQKFKGKAILTVDKSSSTAYMELRSLTFEDSAVYYCARRIYYGYFDYWGQGTTVTVSS
VL: AFFAVSLGQRATISCKASQSVDYDGDSYMNWYQQKPGQPPKLLIYVASNLESGVPARFSGSGSGTDFTLNIHPVEEEDAATYYCQQSNEDPYTFGGGTKLEIKQ
B2: anti-CAPRIN-1 monoclonal antibody #27 (antibody, V domains shown)
VH: GGGLVQPGGSMRLSCVASGFTFSNSWFNWVRQSPEKGLEWVAEIRLTSDNYAIYYAESVKGRFTISRDDSKSSVYLQMNNLRAEDTGIYYCTRPETARATFAYWGQGTTVTVSS
VL: DVLMTQTPLSLPVSLGDQASISCRSSQSIVHSNGNTYLEWYLQKPGQSPKVLIYKVFNRFSGVPDRFSGSGSGTDFTLKISRVEAEDLGVYYCFQGSHVPRTFGGGTKLNQTG
B3: anti-CAPRIN-1 monoclonal antibody #29 (antibody, V domains shown)
VH: GAELVKPGASVKLSCTASGLNIRDIYMHWVKQRPEQGLEWIGKIDPANGNTKYDPKFQGKATITADTSSNTAYVQLSSLTSEDTAVYYCAGTGDYWGQGTTVTVSS
VL: GTCGDIVMSQSPSSLAVSAGEKVTMSCKSSQSLLNSRTRKNYLAWVQHKPGQSPRLLIYWASTRESGVPDRFTGSGSGTDFTLTISSVQAEDLAVYYCRQSYNLVTFGAGPS

The experiment deals with CAPRIN-1 protein expressed on the cell surface of human cancer cells (human) (UniProt Q14444). The experiment can be described thus: flow cytometry, TGBC14TKB cells, as in Example 10. In general terms: A flow cytometer gives signals particle by particle.
For B1, the binding result is reported as “binds”.

For B2, the binding result was “binds”.

B3: the binding entry was “binds”.
